Among the data in publication doi:10.64898/2025.12.15.694023 are binding values, retold here.

Protein sequences, listed by entry. Tags and fused reporters are not part of them. Residues count along the entry.
UniProt Q69ZK9, residues 15-836: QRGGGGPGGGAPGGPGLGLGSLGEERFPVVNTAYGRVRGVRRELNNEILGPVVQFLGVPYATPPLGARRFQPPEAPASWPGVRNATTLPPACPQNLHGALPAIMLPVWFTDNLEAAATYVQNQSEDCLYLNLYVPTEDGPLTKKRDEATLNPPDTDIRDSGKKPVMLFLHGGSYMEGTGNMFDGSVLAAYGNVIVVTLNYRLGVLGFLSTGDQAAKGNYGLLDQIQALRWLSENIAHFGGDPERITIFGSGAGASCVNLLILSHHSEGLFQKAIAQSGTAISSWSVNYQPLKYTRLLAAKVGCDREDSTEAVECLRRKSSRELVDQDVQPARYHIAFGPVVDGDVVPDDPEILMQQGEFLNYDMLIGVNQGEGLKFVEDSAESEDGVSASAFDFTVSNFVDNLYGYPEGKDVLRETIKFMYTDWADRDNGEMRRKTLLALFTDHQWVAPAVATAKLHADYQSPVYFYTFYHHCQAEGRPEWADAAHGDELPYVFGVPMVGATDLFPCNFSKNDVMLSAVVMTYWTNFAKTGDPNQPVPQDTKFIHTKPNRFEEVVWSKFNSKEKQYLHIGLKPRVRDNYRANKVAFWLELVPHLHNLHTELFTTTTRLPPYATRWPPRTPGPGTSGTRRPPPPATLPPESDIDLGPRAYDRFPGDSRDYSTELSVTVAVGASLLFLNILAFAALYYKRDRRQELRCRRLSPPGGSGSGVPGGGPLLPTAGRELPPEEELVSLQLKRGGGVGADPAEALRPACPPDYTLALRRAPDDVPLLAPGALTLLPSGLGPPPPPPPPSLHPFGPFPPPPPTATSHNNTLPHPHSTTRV
UniProt Q99K10, residues 46-843: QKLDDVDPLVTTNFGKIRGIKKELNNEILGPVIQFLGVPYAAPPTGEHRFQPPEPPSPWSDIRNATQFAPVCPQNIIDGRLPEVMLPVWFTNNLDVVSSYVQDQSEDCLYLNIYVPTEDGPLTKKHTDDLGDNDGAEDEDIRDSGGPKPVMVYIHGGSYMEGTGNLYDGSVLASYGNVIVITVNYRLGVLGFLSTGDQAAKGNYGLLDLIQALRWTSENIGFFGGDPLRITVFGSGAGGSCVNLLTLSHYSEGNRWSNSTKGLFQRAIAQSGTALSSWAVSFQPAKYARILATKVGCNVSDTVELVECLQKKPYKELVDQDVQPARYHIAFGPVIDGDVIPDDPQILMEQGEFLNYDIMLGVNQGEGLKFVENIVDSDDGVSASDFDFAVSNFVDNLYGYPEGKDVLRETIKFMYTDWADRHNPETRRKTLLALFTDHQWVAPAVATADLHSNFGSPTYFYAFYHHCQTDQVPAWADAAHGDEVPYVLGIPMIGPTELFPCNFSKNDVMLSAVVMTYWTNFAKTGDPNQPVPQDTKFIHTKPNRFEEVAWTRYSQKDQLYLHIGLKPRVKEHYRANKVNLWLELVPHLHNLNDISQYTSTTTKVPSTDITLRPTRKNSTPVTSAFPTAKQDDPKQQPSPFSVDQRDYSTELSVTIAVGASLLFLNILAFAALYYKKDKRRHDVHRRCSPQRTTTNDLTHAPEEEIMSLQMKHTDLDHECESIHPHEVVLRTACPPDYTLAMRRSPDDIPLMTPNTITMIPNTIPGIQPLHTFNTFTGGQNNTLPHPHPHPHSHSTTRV
UniProt Q8BYM5, residues 35-825: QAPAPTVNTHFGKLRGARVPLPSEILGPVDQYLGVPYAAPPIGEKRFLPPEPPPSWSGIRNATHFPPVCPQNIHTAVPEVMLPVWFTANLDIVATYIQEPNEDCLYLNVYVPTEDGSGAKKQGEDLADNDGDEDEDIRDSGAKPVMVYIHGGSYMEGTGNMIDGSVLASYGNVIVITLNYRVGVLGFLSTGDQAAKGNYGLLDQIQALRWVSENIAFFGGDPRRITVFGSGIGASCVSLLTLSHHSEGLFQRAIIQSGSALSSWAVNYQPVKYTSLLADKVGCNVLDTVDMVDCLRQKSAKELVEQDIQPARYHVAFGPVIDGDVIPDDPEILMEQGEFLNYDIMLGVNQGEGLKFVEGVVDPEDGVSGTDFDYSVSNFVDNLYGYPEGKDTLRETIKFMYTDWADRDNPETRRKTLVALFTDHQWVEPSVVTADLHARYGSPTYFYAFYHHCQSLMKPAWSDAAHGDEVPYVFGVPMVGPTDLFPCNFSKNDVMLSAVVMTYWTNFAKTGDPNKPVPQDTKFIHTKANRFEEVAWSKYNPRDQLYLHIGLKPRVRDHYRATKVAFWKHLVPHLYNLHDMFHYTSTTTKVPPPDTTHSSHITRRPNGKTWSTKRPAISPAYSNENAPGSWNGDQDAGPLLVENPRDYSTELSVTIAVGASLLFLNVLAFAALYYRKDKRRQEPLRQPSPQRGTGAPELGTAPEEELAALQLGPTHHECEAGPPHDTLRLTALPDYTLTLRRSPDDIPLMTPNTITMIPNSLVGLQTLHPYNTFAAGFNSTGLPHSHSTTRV
UniProt Q8CFI0: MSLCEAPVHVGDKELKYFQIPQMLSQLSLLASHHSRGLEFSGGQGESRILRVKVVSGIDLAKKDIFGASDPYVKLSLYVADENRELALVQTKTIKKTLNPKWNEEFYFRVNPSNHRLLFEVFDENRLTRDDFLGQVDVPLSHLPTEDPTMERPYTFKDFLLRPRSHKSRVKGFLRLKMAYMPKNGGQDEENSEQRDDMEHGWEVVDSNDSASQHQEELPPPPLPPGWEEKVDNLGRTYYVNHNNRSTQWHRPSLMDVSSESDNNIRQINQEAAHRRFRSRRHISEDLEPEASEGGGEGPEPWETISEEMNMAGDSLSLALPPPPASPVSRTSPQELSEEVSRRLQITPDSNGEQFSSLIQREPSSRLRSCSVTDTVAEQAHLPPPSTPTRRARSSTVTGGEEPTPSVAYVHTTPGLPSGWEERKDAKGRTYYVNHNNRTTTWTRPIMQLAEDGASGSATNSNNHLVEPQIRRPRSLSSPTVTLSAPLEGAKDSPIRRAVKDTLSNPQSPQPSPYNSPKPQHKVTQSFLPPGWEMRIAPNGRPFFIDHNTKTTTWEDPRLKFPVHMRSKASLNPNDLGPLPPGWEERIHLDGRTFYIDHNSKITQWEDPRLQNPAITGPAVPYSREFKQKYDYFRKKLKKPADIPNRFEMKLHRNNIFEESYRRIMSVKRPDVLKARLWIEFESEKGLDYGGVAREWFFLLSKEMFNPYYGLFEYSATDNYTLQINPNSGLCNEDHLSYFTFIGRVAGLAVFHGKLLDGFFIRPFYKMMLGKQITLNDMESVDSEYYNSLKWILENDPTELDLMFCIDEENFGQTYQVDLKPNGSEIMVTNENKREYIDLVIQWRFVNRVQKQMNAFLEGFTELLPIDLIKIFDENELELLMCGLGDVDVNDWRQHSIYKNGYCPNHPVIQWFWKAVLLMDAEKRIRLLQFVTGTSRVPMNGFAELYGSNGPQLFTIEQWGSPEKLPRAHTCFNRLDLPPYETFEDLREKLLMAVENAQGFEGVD

For assay [1], the target named is gfaABC1D HA-NL2 Turbo (mouse) (UniProt Q69ZK9). Kind of assay: proximity labelling; in vivo BioID (iBioID): NL-Turbo BirA fusions under the GfaABC1D promoter in astrocytes of mouse cortex (AAV at P0-P1), biotin P18-P20, cortices at P21, Neutravidin beads, LC-MS/MS; enrichment over soluble Turbo BirA in astrocytes.
Assay [2] has as its target hSyn1 HA-NL2 Turbo (mouse) (UniProt Q69ZK9). Kind of assay: proximity labelling; in vivo BioID (iBioID): NL2-Turbo BirA under the hSyn1 promoter in neurons of mouse cortex (AAV at P0-P1), biotin P18-P20, cortices at P21, Neutravidin beads, LC-MS/MS; enrichment over soluble Turbo BirA in neurons.
Assay [3] deals with gfaABC1D HA-NL1 Turbo (mouse) (UniProt Q99K10). Kind of assay: proximity labelling; in vivo BioID (iBioID): NL-Turbo BirA fusions under the GfaABC1D promoter in astrocytes of mouse cortex (AAV at P0-P1), biotin P18-P20, cortices at P21, Neutravidin beads, LC-MS/MS; enrichment over soluble Turbo BirA in astrocytes.
Assay [4] concerns the target gfaABC1D HA-NL3 Turbo (mouse) (UniProt Q8BYM5). Described as above.
For assay [5], the target named is gfaABC1D HA-NL2 Turbo (mouse) (UniProt Q69ZK9). Described as above. The source holds these as a separate data set.

Like-named read-outs stand apart in the source and are kept apart here. Results are given in words; binding and its absence hold for the method and conditions named. Binding seen in cells or lysates may run through a third protein. A yes stands for co-enrichment or nearness to the bait. Other partners may have been found. For part of these data: No binding means not detected with the bait.

With Dystrophin (from UniProt P11531 1-3678), in assay [1], the binding result was “binds”.

As to “NL1 (endogenous, mouse cortex) (from UniProt Q99K10 46-843)”, the binding result in assay [2] and in assay [1] was “binds” each time.

Consider “NL3 (endogenous, mouse cortex) (from UniProt Q8BYM5 35-825)”, for which the binding entry in assay [2] and in assay [1] was “binds” in each case.

In the case of “neural precursor cell expressed developmentally downregulated 4-like protein (endogenous, mouse cortex) (from UniProt Q8CFI0 1-1004) (enzyme)”, the results for the binding result in assay [3], in assay [4] and in assay [1] were “binds”, “no binding” and “binds”, respectively.

B1: growth arrest-specific protein 7 (protein, UniProt Q60780 1-421)
chain: MATALQKPGMVPPPPGEESQTVILPPGWHSYLSPQGRRYYVNTTTNETTWERPSSSPGISASPAPHRSSLPTTVNGYHASGTPAHPPETAHMSLRKSTGDSQNLGSSSPGRKQSKENTITINCVTFPHPDTMPEQQLLKPTEWSYCDYFWADKKDPQGNGTVAGFELLLQKQLKGKQMQKEMSEFIRERIKIEEEYAKNLAKLSQNSLAAQEEGSLGEAWAQVKKSLADEAEVHLKFSAKLHSEVEKPLMNFRENFKKDMKKCDHHIADLRKQLASRYASVEKARKALTERQKDLEMKTQQLEIKLSNKTEEDIKKARRKSTQAGDDLMRCVDLYNQAQSKWFEEMVTTTLELERLEVERVEMIRQHLCQYTQLRHETDMFNQSTVEPVDQLLRKVDPAKDRELWVREHKTGNIRPVDMEI
modifications: biotin (proximity labelling)
As to B1, in assay [5], the binding entry was “binds”.
